Data on 4 substances can be found in article PMC4914336.

By UniProt entry, the sequences of proteins in these tests, tags left out. Residues count along the entry.
UniProt P04792: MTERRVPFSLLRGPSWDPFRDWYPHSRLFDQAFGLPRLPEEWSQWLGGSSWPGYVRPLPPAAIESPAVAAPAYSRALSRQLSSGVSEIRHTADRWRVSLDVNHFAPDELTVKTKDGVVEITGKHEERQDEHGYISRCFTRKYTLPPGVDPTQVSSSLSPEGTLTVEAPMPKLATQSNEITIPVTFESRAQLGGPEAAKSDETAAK
UniProt P11021, residues 19-654: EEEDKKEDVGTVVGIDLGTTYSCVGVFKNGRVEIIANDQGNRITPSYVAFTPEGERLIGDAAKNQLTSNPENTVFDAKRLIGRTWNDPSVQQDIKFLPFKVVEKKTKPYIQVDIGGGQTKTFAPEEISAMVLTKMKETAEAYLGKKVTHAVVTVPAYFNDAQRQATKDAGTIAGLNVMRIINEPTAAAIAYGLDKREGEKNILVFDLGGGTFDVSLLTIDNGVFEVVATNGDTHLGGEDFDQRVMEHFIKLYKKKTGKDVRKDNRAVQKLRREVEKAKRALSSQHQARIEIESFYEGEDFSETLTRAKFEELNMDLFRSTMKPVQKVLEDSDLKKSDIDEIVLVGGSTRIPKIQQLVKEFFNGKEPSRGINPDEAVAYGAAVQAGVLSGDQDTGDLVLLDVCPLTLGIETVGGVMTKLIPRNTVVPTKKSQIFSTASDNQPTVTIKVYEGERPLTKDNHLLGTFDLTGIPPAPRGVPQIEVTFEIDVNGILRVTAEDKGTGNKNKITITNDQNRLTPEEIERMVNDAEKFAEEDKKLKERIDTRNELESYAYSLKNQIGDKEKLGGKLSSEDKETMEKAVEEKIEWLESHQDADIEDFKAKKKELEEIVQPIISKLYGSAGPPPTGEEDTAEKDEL
UniProt P01106: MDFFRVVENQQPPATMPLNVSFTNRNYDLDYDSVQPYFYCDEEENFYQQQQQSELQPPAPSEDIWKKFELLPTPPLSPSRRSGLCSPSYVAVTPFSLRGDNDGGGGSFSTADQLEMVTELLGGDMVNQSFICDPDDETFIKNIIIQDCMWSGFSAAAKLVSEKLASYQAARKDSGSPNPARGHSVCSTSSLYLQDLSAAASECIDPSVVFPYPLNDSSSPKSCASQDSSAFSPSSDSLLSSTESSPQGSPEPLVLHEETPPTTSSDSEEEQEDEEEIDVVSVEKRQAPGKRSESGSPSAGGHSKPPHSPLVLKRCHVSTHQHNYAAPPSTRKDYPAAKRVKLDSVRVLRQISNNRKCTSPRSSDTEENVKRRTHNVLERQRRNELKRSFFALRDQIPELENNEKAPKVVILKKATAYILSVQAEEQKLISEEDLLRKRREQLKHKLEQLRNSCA
UniProt Q92598: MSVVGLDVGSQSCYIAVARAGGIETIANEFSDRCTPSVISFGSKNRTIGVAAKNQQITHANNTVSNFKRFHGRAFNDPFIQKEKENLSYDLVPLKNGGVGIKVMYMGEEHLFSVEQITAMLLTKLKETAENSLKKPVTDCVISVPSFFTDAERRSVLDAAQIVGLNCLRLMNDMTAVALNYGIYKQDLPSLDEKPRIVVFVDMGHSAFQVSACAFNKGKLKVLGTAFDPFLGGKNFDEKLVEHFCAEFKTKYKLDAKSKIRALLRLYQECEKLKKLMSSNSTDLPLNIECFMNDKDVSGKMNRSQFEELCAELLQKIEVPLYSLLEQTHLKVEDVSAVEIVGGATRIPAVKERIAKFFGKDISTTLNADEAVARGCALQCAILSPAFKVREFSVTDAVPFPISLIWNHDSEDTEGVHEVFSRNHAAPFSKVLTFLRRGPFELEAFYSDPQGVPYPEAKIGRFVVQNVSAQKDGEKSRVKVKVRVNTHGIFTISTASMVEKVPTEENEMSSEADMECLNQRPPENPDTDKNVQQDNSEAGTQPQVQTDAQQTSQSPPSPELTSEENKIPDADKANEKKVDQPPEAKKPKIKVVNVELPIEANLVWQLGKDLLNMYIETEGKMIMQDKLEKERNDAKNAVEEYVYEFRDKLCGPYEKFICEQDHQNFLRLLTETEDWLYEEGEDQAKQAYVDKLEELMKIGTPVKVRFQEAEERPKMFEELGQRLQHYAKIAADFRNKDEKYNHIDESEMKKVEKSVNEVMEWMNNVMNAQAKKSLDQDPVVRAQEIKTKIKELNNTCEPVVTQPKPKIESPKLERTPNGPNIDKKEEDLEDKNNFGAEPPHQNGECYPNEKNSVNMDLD

No constants are given. Whether binding was seen depends on the method and setting. In cells and extracts the contact can be indirect. Some binding calls cover weakened binding; strength is not graded here.

Assay [1] has as its target HSP27 (human (endogenous; the cell line of this experiment is not given)) (UniProt P04792). The assay can be described thus: co-IP; immuno-precipitates of endogenous HSP90, GRP78, HSP70 or HSP27 from cells expressing only endogenous levels; cells treated with vehicle, OSU-03012, pazopanib or AR-13; blots of co-precipitating proteins.
The target in assay [2] is GRP78 (human (endogenous; the cell line of this experiment is not given)) (UniProt P11021). Described as above.
In assay [3] the target is c-MYC (human (endogenous in GBM12)) (UniProt P01106). The assay can be described thus: co-IP; GBM12 cells treated with vehicle or [OSU-03012 (2.0 uM) + sildenafil (2.0 uM)] for 30 min, lysed; immuno-precipitation for c-MYC or for HSPH1/p105, SDS PAGE and western blotting.
Assay [4] addresses HSPH1/p105 (human (endogenous in GBM12)) (UniProt Q92598). The description is as above.

GRP78 (from UniProt P11021 19-654): the binding entry in assay [1] is recorded as “binds”.

Regarding HSP27 (from UniProt P04792 1-205), in assay [2], the binding result is given as “binds”.

Take HSPH1/p105 (from UniProt Q92598 1-858): the binding entry in assay [3] is given as “binds”.

Turning to c-MYC (from UniProt P01106 1-454), the binding result in assay [4] is on record as “binds”.
